For the assay, the target named is Beclin1 (human (endogenous in MV3 and A375)) (UniProt Q14457). In words: co-IP; precleared cell lysates incubated with anti-Beclin1 antibodies or normal IgG overnight at 4°C, protein A+G agarose 6 h at 4°C, western blotting; cells treated with 100 μM leflunomide or DMSO for 72 h, or with DHODH knockdown (MV3).

Amino acid sequences for entries named in this document (tags omitted).
UniProt Q14457: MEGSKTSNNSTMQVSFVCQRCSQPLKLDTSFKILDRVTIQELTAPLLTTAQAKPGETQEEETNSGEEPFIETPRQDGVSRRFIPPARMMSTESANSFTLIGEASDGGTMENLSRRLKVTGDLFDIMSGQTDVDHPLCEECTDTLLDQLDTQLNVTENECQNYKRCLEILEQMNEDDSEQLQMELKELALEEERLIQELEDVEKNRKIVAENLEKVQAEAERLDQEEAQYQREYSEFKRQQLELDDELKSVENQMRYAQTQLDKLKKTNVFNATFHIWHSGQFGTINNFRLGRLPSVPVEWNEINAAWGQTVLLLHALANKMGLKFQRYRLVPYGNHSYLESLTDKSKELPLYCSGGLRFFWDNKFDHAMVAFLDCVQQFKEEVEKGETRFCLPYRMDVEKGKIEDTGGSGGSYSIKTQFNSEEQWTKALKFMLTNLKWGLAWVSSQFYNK
UniProt P10415: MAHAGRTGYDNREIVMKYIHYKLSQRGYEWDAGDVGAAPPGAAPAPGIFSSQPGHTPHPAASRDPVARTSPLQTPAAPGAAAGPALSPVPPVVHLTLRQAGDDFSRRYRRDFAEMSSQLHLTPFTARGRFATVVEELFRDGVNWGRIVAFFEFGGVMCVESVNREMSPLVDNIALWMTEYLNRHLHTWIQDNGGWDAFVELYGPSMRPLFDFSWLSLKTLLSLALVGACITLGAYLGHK

No constants are given. Whether binding was seen depends on the method and setting. Binding seen in cells or lysates may run through a third protein. Some entries that bind do so weakly or less than the wild type.

For “BCL-2 (overexpressed in A375 cells) (from UniProt P10415 1-239)”, the binding entry is given as “binds”.

For BCL-2 (from UniProt P10415 1-239), the binding entry is “binds”.

Source of the values: PMC5762515.
